# This is one part of the list. The list holds hits alone, and they repeat only in part.
# Protein sequences, listed by entry. Tags and fused reporters are not part of them.
# ATP6V1F, Q16864, UniProt Q16864, whole entry: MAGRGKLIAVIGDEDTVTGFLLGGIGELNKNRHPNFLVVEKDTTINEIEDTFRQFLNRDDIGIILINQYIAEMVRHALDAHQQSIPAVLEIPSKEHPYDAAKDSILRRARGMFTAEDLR
# CPSF6, Q16630, UniProt Q16630, whole entry: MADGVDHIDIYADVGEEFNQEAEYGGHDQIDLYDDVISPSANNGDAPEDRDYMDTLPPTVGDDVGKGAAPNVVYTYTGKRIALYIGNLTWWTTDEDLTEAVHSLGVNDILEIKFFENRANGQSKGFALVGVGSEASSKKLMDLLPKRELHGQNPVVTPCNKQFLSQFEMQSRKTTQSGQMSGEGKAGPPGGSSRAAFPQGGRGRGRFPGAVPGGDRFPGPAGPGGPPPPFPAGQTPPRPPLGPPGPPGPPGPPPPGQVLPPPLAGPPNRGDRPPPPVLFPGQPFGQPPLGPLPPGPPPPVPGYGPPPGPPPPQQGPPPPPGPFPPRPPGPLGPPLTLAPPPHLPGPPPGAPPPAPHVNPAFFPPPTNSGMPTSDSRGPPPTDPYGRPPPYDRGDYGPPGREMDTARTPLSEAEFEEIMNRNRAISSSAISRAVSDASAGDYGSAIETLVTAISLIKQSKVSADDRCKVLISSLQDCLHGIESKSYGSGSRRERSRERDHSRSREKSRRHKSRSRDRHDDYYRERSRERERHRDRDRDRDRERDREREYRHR
# EIF3G, O75821, UniProt O75821, whole entry: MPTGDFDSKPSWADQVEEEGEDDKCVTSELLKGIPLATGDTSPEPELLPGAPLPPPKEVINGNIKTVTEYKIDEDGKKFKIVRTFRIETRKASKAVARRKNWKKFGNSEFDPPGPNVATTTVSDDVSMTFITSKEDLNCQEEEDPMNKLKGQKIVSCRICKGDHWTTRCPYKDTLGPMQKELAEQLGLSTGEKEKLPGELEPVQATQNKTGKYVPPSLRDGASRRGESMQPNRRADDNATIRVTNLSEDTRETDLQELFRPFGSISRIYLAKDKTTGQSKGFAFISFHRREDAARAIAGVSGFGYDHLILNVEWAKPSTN
# MAPK3, P27361, UniProt P27361, whole entry: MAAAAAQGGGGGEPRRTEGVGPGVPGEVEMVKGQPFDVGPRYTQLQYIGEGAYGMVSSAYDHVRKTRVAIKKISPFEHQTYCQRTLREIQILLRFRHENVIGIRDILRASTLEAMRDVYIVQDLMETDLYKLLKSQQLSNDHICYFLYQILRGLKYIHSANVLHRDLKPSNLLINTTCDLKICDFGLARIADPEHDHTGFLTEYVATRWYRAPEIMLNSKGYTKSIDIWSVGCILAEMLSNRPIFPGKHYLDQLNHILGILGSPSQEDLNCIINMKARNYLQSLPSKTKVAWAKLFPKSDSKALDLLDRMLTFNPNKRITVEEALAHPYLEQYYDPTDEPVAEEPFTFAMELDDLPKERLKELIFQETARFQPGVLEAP
# ATXN2, Q99700, UniProt Q99700, whole entry: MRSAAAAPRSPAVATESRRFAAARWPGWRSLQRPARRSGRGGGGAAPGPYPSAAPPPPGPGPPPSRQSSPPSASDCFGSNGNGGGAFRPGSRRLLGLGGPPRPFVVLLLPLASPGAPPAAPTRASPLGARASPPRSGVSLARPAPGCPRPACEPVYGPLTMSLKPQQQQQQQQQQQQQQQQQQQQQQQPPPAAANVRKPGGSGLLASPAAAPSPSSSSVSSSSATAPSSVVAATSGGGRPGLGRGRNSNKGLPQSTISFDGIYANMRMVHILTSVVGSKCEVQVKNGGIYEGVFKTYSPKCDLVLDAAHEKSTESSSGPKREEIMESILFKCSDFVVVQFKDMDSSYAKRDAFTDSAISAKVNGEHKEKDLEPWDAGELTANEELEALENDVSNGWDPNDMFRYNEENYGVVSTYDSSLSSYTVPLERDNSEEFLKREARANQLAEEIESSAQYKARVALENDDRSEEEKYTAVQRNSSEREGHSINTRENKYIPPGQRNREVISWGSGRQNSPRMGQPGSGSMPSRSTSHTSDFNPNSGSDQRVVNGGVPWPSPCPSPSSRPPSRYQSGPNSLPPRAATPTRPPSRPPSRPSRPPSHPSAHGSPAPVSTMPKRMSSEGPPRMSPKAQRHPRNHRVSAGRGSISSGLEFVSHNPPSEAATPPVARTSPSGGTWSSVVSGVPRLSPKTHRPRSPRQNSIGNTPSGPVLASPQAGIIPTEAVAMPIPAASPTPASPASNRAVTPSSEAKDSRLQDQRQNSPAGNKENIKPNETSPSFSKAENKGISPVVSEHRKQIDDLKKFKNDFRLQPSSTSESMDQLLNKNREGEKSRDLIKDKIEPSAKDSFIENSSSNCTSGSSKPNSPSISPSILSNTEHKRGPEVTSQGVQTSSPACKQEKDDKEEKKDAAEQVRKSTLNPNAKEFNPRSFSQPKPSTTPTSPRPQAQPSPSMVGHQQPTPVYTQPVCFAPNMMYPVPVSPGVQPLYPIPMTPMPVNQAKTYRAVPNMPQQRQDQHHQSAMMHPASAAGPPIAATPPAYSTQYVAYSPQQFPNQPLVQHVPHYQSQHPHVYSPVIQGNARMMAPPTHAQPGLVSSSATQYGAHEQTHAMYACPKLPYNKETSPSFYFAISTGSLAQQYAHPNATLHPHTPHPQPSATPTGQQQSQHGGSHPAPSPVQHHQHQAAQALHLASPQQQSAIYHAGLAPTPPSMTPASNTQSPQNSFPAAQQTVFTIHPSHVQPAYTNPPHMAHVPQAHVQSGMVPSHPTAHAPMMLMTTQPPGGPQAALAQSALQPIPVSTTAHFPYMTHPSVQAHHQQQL
# EIF4G1, Q04637, UniProt Q04637, whole entry: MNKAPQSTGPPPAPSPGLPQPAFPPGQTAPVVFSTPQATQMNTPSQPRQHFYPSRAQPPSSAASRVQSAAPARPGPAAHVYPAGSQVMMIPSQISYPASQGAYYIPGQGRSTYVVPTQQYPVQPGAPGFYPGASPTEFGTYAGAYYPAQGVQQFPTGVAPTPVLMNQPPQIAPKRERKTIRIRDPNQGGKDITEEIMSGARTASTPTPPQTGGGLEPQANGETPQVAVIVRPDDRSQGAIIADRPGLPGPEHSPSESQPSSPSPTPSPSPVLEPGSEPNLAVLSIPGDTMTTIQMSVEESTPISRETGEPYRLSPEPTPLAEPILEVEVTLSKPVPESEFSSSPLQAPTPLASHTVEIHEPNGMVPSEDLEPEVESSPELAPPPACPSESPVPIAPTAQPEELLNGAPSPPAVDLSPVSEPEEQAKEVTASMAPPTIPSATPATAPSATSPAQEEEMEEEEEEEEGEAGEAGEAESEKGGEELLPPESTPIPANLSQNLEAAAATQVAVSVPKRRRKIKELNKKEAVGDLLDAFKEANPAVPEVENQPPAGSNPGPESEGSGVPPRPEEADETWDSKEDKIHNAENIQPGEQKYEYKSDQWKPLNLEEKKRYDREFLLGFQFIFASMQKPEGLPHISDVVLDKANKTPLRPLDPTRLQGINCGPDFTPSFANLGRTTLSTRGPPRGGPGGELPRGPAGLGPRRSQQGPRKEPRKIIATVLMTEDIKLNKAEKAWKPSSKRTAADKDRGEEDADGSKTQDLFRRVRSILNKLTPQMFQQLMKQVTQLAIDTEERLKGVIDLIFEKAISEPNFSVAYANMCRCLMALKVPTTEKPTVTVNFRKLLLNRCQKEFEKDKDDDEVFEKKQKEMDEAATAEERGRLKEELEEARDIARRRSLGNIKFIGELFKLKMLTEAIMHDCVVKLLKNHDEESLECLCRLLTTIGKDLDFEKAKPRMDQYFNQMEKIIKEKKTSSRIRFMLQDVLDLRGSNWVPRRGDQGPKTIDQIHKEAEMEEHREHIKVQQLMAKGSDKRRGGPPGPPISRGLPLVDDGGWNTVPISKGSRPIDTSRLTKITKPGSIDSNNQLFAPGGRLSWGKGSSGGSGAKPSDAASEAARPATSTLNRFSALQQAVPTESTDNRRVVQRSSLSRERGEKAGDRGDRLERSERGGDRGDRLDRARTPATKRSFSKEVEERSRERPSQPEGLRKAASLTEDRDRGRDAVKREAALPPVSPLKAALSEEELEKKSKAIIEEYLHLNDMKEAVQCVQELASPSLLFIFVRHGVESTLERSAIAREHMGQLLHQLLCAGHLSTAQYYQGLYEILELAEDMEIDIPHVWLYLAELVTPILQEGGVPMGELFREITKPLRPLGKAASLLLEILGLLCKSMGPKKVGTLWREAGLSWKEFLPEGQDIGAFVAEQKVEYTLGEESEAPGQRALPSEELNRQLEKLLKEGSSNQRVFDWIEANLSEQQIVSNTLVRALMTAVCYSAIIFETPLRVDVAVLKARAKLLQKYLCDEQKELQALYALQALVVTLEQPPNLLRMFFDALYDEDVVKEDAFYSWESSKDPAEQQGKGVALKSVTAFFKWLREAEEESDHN
# NDUFS7, O75251, UniProt O75251, whole entry: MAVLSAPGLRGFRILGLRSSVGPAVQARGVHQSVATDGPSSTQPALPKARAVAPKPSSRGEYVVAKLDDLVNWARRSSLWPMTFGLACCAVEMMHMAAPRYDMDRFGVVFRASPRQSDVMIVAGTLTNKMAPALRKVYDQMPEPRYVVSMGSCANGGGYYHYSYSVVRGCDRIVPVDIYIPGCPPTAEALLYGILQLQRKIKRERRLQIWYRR
# MAPK1, P28482, UniProt P28482, whole entry: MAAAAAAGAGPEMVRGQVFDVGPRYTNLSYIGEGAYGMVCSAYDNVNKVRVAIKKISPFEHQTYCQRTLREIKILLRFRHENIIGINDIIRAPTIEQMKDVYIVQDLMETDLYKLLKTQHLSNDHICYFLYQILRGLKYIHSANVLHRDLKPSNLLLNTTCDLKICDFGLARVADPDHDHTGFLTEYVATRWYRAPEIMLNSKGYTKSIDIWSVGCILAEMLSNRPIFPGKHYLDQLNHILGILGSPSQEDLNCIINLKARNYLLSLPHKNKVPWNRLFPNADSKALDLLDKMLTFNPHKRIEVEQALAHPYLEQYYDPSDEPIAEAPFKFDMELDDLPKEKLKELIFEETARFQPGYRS
# PHB2, Q99623, UniProt Q99623, whole entry: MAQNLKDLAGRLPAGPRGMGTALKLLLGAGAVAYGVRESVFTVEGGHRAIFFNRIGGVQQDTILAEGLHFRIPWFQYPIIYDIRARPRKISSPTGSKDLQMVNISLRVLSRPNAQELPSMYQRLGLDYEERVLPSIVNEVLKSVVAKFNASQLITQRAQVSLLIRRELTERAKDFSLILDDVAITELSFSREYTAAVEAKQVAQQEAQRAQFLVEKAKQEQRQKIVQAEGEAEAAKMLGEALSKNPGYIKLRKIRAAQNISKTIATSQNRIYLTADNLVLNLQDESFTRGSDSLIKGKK
# NDUFA9, Q16795, UniProt Q16795, whole entry: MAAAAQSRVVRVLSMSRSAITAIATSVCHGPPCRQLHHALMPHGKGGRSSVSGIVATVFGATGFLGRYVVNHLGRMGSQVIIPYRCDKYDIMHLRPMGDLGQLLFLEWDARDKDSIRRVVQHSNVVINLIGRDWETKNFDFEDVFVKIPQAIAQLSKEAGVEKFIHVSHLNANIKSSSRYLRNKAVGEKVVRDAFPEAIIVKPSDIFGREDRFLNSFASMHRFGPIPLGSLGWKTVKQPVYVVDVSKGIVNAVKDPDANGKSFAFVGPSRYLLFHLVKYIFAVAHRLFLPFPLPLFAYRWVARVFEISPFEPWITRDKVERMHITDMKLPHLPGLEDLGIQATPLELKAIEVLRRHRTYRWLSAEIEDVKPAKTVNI
# SMARCA5, O60264, UniProt O60264, whole entry: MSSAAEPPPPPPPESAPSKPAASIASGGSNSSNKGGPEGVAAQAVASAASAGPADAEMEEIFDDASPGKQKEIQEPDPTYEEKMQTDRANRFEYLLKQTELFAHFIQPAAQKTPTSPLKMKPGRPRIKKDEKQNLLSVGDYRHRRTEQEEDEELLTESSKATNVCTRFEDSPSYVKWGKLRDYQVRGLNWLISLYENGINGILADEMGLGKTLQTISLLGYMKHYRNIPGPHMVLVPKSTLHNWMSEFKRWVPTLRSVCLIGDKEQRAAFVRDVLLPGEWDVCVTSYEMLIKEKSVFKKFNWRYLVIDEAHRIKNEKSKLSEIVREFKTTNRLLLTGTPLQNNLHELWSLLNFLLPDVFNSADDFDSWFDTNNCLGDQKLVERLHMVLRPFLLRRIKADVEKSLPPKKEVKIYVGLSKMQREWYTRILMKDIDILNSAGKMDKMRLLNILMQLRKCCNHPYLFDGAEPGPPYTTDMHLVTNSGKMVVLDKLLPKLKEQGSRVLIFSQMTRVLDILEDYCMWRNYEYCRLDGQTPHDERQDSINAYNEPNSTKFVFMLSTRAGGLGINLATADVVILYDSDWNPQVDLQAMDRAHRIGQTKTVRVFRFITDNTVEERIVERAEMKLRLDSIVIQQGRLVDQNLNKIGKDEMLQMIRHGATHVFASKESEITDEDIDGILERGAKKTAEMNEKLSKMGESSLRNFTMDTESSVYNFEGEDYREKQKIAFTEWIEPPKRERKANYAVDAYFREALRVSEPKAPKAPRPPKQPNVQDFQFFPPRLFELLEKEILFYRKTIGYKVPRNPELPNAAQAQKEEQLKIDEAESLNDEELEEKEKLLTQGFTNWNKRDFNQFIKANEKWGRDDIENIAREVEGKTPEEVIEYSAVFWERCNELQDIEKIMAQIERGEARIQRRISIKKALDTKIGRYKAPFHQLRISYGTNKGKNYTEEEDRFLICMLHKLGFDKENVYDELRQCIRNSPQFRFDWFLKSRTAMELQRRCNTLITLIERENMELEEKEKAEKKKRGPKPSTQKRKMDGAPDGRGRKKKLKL
# How the values were obtained:
# Experiment in all cases: PRISMA enrichment of interactor (LFQ) in peptide spot vs all other peptide spots (log2 fold change); higher = stronger / more specific binding of the interactor to the peptide
# [1] = biological target: ATP6V1F, Q16864
# Description: (§1)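 PRISMA: 15-aa overlapping tiles (offset 8 aa) of 60 microproteins, plus SOS1/GLUT1 control peptides, were spot-synthesized on cellulose membranes in triplicate. Membranes were incubated with benzonase-treated HEK293T lysate, and bound proteins were identified by LC-MS/MS with LFQ. Enrichment is the log2 fold change of each protein in one spot versus all other spots. Only interactors passing the significance cutoff are listed.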
# [2] = biological target: BIRC6, Q9NR09
# Description: as §1
# [3] = biological target: C18orf21, Q32NC0
# Description: as §1
# [4] = biological target: CDC20, Q12834
# Description: as §1
# [5] = biological target: CORO7-PAM16
# Description: as §1
# [6] = biological target: CPSF6, Q16630
# Description: as §1
# [7] = biological target: DDX41, Q9UJV9
# Description: as §1
# [8] = biological target: EIF3G, O75821
# Description: as §1
# [9] = biological target: HMGN4, O00479
# Description: as §1
# [10] = biological target: HSD17B11, Q8NBQ5
# Description: as §1
# [11] = biological target: LARP1, Q6PKG0
# Description: as §1
# [12] = biological target: MAPK3, P27361
# Description: as §1
# [13] = biological target: MCM5, P33992
# Description: as §1
# [14] = biological target: NOC3L, Q8WTT2
# Description: as §1
# [15] = biological target: NUP155, O75694
# Description: as §1
# [16] = substrate: PNN, Q9H307
# Description: as §1
# [17] = biological target: POLD1, P28340
# Description: as §1
# [18] = biological target: PSMC1, P62191
# Description: as §1
# [19] = biological target: RAD18, Q9NS91
# Description: as §1
# [20] = biological target: RFC4, P35249
# Description: as §1
# [21] = biological target: SRSF11, Q05519
# Description: as §1
# [22] = biological target: THADA, Q6YHU6
# Description: as §1
# [23] = biological target: TRAP1, Q12931
# Description: as §1
# [24] = biological target: VPS36, Q86VN1
# Description: as §1
# [25] = biological target: XAB2, Q9HCS7
# Description: as §1
# [26] = biological target: ZFR, Q96KR1
# Description: as §1
# [27] = biological target: ATXN2, Q99700
# Description: as §1
# [28] = biological target: CC2D1A, Q6P1N0
# Description: as §1
# [29] = biological target: CDK5, Q00535
# Description: as §1
# [30] = substrate: CNBP, P62633
# Description: as §1
# [31] = biological target: COPS5, Q92905
# Description: as §1
# [32] = biological target: CPSF3, Q9UKF6
# Description: as §1
# [33] = biological target: CRKL, P46109
# Description: as §1
# [34] = biological target: DDX51, Q8N8A6
# Description: as §1
# [35] = biological target: EIF4G1, Q04637
# Description: as §1
# [36] = biological target: EXOC4, Q96A65
# Description: as §1
# [37] = biological target: EYA3, Q99504
# Description: as §1
# [38] = biological target: FEN1, P39748
# Description: as §1
# [39] = biological target: HOXB6, P17509
# Description: as §1
# [40] = biological target: IMP4, Q96G21
# Description: as §1
# [41] = biological target: MARK2, Q7KZI7
# Description: as §1
# [42] = biological target: MTCH2, Q9Y6C9
# Description: as §1
# [43] = biological target: NDUFS7, O75251
# Description: as §1
# [44] = biological target: NOL6, Q9H6R4
# Description: as §1
# [45] = biological target: PLS3, P13797
# Description: as §1
# [46] = biological target: RAB14, P61106
# Description: as §1
# [47] = biological target: RBM26, Q5T8P6
# Description: as §1
# [48] = biological target: RNH1, P13489
# Description: as §1
# [49] = biological target: SAFB, Q15424
# Description: as §1
# [50] = biological target: SNAPIN, O95295
# Description: as §1
# [51] = biological target: SUGT1, Q9Y2Z0
# Description: as §1
# [52] = biological target: TCAF1, Q9Y4C2
# Description: as §1
# [53] = biological target: USP39, Q53GS9
# Description: as §1
# [54] = biological target: WDR61, Q9GZS3
# Description: as §1
# [55] = biological target: YWHAG, P61981
# Description: as §1
# [56] = biological target: ZNF503, Q96F45
# Description: as §1
# [57] = biological target: ZRANB2, O95218
# Description: as §1
# [58] = biological target: AURKAIP1, Q9NWT8
# Description: as §1
# [59] = biological target: DNAJB4, Q9UDY4
# Description: as §1
# [60] = biological target: EIF3B, P55884
# Description: as §1
# [61] = biological target: MAPK1, P28482
# Description: as §1
# [62] = biological target: MEPCE, Q7L2J0
# Description: as §1
# [63] = biological target: PDCD11, Q14690
# Description: as §1
# [64] = biological target: PHB2, Q99623
# Description: as §1
# [65] = biological target: RANBP2, P49792
# Description: as §1
# [66] = biological target: SAE1, Q9UBE0
# Description: as §1
# [67] = biological target: AURKB, Q96GD4
# Description: as §1
# [68] = biological target: CNN3, Q15417
# Description: as §1
# [69] = biological target: GET4, Q7L5D6
# Description: as §1
# [70] = biological target: KRT18, P05783
# Description: as §1
# [71] = biological target: MYO1D, O94832
# Description: as §1
# [72] = biological target: NDUFA9, Q16795
# Description: as §1
# [73] = biological target: NUBP2, Q9Y5Y2
# Description: as §1
# [74] = biological target: PIN1, Q13526
# Description: as §1
# [75] = biological target: PRPF40A, O75400
# Description: as §1
# [76] = biological target: PTCD3, Q96EY7
# Description: as §1
# [77] = biological target: SMARCA5, O60264
# Description: as §1
# [78] = biological target: SMC5, Q8IY18
# Description: as §1
# [79] = biological target: SRP68, Q9UHB9
# Description: as §1
# [80] = biological target: SUB1, P53999
# Description: as §1
# [81] = biological target: TBCD, Q9BTW9
# Description: as §1
# [82] = biological target: VMP1, Q96GC9
# Description: as §1
binder,measurement,setting,value
SGAALETLKFTSMRG [SNHG8],PRISMA enrichment of interactor (log2),[1],6.3
same,PRISMA enrichment of interactor (log2),[2],4.15
same,PRISMA enrichment of interactor (log2),[3],3.97
same,PRISMA enrichment of interactor (log2),[4],4.82
same,PRISMA enrichment of interactor (log2),[5],4.07
same,PRISMA enrichment of interactor (log2),[6],5.83
same,PRISMA enrichment of interactor (log2),[7],6.17
same,PRISMA enrichment of interactor (log2),[8],7.21
same,PRISMA enrichment of interactor (log2),[9],4.84
same,PRISMA enrichment of interactor (log2),[10],4.4
same,PRISMA enrichment of interactor (log2),[11],5.12
same,PRISMA enrichment of interactor (log2),[12],11.1
same,PRISMA enrichment of interactor (log2),[13],6.61
same,PRISMA enrichment of interactor (log2),[14],4.44
same,PRISMA enrichment of interactor (log2),[15],4.43
same,PRISMA enrichment of interactor (log2),[16],5.01
same,PRISMA enrichment of interactor (log2),[17],5.68
same,PRISMA enrichment of interactor (log2),[18],4.56
same,PRISMA enrichment of interactor (log2),[19],6.28
same,PRISMA enrichment of interactor (log2),[20],4.58
same,PRISMA enrichment of interactor (log2),[21],4.43
same,PRISMA enrichment of interactor (log2),[22],4.16
same,PRISMA enrichment of interactor (log2),[23],7.22
same,PRISMA enrichment of interactor (log2),[24],5.59
same,PRISMA enrichment of interactor (log2),[25],5.32
same,PRISMA enrichment of interactor (log2),[26],6.43
WQGQVAKCTQPSQQG [RP11-140K17.3],PRISMA enrichment of interactor (log2),[27],5.48
same,PRISMA enrichment of interactor (log2),[28],6.27
same,PRISMA enrichment of interactor (log2),[29],3.93
same,PRISMA enrichment of interactor (log2),[30],3.95
same,PRISMA enrichment of interactor (log2),[31],4.47
same,PRISMA enrichment of interactor (log2),[32],4.24
same,PRISMA enrichment of interactor (log2),[33],4.24
same,PRISMA enrichment of interactor (log2),[34],5.64
same,PRISMA enrichment of interactor (log2),[35],5
same,PRISMA enrichment of interactor (log2),[36],5.84
same,PRISMA enrichment of interactor (log2),[37],4.74
same,PRISMA enrichment of interactor (log2),[38],7.28
same,PRISMA enrichment of interactor (log2),[39],3.78
same,PRISMA enrichment of interactor (log2),[40],3.6
same,PRISMA enrichment of interactor (log2),[41],8.69
same,PRISMA enrichment of interactor (log2),[42],4.83
same,PRISMA enrichment of interactor (log2),[43],4.61
same,PRISMA enrichment of interactor (log2),[44],4.87
same,PRISMA enrichment of interactor (log2),[45],4.7
same,PRISMA enrichment of interactor (log2),[46],6.85
same,PRISMA enrichment of interactor (log2),[47],5.09
same,PRISMA enrichment of interactor (log2),[48],4.25
same,PRISMA enrichment of interactor (log2),[49],4.9
same,PRISMA enrichment of interactor (log2),[50],5.18
same,PRISMA enrichment of interactor (log2),[51],4.45
same,PRISMA enrichment of interactor (log2),[52],4.9
same,PRISMA enrichment of interactor (log2),[53],4.7
same,PRISMA enrichment of interactor (log2),[54],4.51
same,PRISMA enrichment of interactor (log2),[55],4.52
same,PRISMA enrichment of interactor (log2),[26],6.63
same,PRISMA enrichment of interactor (log2),[56],3.72
same,PRISMA enrichment of interactor (log2),[57],6.71
GWPTASGWTPAARAC [THAP7],PRISMA enrichment of interactor (log2),[58],4.23
same,PRISMA enrichment of interactor (log2),[59],6.15
same,PRISMA enrichment of interactor (log2),[60],4.5
same,PRISMA enrichment of interactor (log2),[61],4.62
same,PRISMA enrichment of interactor (log2),[62],4.36
same,PRISMA enrichment of interactor (log2),[63],4.96
same,PRISMA enrichment of interactor (log2),[64],4.66
same,PRISMA enrichment of interactor (log2),[65],5.55
same,PRISMA enrichment of interactor (log2),[66],4.1
VTEARQRFHLGEGER [RP1-206D15.6],PRISMA enrichment of interactor (log2),[67],5.38
same,PRISMA enrichment of interactor (log2),[68],5.87
same,PRISMA enrichment of interactor (log2),[69],4.97
same,PRISMA enrichment of interactor (log2),[70],5.25
same,PRISMA enrichment of interactor (log2),[61],9.11
same,PRISMA enrichment of interactor (log2),[71],5.18
same,PRISMA enrichment of interactor (log2),[72],5.43
same,PRISMA enrichment of interactor (log2),[73],7.48
same,PRISMA enrichment of interactor (log2),[74],5.96
same,PRISMA enrichment of interactor (log2),[75],5.93
same,PRISMA enrichment of interactor (log2),[76],6.16
same,PRISMA enrichment of interactor (log2),[65],5.64
same,PRISMA enrichment of interactor (log2),[77],6.43
same,PRISMA enrichment of interactor (log2),[78],4.23
same,PRISMA enrichment of interactor (log2),[79],5.84
same,PRISMA enrichment of interactor (log2),[80],6.71
same,PRISMA enrichment of interactor (log2),[81],5.38
same,PRISMA enrichment of interactor (log2),[82],9.68

# Quoted at random: 3 entries already listed, in no set order.
binder,measurement,setting,value
WQGQVAKCTQPSQQG [RP11-140K17.3],PRISMA enrichment of interactor (log2),[45],4.7
VTEARQRFHLGEGER [RP1-206D15.6],PRISMA enrichment of interactor (log2),[65],5.64
WQGQVAKCTQPSQQG [RP11-140K17.3],PRISMA enrichment of interactor (log2),[31],4.47

# — the supplement of paper PMC10032668
